# Experimental data: the supplement of paper PMC7646827
# Repeats are few or missing, and single values can be far off.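 All cells are established human bladder cancer lines, one of them grown from a patient-derived xenograft. Viability was read by a luminescent ATP assay as percent inhibition versus vehicle over a seven-point dilution series; the paper calls scores above 59 very active, 30–59 active, 21–29 semi-active, 9–20 low active and below 9 inactive.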
# Experiments:
# Experiment in all cases: drug sensitivity score DSS3 (score 0-100); higher = more sensitive; extreme values may be limits of the assay
# Conditions in all cases: culture: 3D, ultra-low attachment; treatment time: 5 days
# 5637 = system: 5637
# BC8149 = system: BC8149
# J82 = system: J82
# SCaBER = system: SCaBER
# SW780 = system: SW780
# T-24 = system: T-24
# TCCSUP = system: TCCSUP
# UM-UC-12 = system: UM-UC-12
# UM-UC-14 = system: UM-UC-14
# UM-UC-15 = system: UM-UC-15
# UM-UC-17 = system: UM-UC-17
# UM-UC-18 = system: UM-UC-18
# UM-UC-1 = system: UM-UC-1
# UM-UC-3 = system: UM-UC-3
# UM-UC-5 = system: UM-UC-5
# UM-UC-6 = system: UM-UC-6
# UM-UC-9 = system: UM-UC-9
SMILES,drug sensitivity score DSS3 5637,drug sensitivity score DSS3 (BC8149),drug sensitivity score DSS3 (J82),drug sensitivity score DSS3 (SCaBER),drug sensitivity score DSS3 (SW780),drug sensitivity score DSS3 (T-24),drug sensitivity score DSS3 (TCCSUP),drug sensitivity score DSS3 (UM-UC-12),drug sensitivity score DSS3 (UM-UC-14),drug sensitivity score DSS3 (UM-UC-15),drug sensitivity score DSS3 (UM-UC-17),drug sensitivity score DSS3 (UM-UC-18),drug sensitivity score DSS3 (UM-UC-1),drug sensitivity score DSS3 (UM-UC-3),drug sensitivity score DSS3 (UM-UC-5),drug sensitivity score DSS3 (UM-UC-6),drug sensitivity score DSS3 (UM-UC-9)
CC(C)(C)C[C@@H]1N[C@@H](C(=O)N[C@H]2CC[C@H](O)CC2)[C@H](c2cccc(Cl)c2F)[C@]12C(=O)Nc1cc(Cl)ccc12 (max dose 10000 nM),3.78,14.4,0,2.42,2.58,0.404,4.53,12.2,0.372,0,0,0.582,0.762,0.542,0,0.72,0
CC(C)CC(=O)Nc1n[nH]c2c1CN(C(=O)C1CCN(C)CC1)C2(C)C (max dose 10000 nM),8.14,0.326,0,2.12,1.08,1.37,3.29,1.08,1.23,2.95,3.19,6.75,0.186,0,0.113,11,0.645
CCN(CC)CCCC(C)Nc1nc(C)cc(Nc2ccc3nc(C)cc(N)c3c2)n1 (centres undefined) (max dose 10000 nM),0.0829,0.033,0,0,0,0,1.61,0,0,0,0,1.24,0,0,0.000524,0.327,0.063
CCN(CC)CCCCNc1ncc2cc(-c3cc(OC)cc(OC)c3)c(NC(=O)NC(C)(C)C)nc2n1 (max dose 10000 nM),4.76,7.57,1.46,2.77,0.913,1.08,17.4,1.73,7.6,0,3.24,2.5,4.14,0.964,0.543,3.43,0
CCc1cncnc1N1CCN(Cc2nc3ccc(C(F)(F)F)cc3[nH]2)CC1 (max dose 10000 nM),3.38,0,0.513,1.32,0,3.58,6.68,2.37,1.64,0,0,0,2.14,0.9,0,0,0
CNCc1ccc(-c2[nH]c3cc(F)cc4c3c2CCNC4=O)cc1 (max dose 10000 nM),0,0,0.79,0.128,0,1.18,0.494,0,0,0,0,0,0,5e-07,0,0,0
COc1ccc(CNC(=O)Nc2ncc([N+](=O)[O-])s2)cc1 (max dose 10000 nM),0.144,0.981,0,0,0,0,0.424,0.272,0.383,16.4,0.365,0.543,0,0,0.00635,0.0504,0
COc1ccc(Cn2ccc3ccc(C(=O)NO)cc32)cc1 (max dose 10000 nM),0,0,0,0,0,0,0,0,0,0,0,0,0,0,0,0,0
COc1cccc(NC(=O)/C=C/c2ccc(Cl)cc2)c1 (max dose 10000 nM),0,0,0,0,0,0,0,0,0,0,0,0,0,0,0.628,0,0.818
COc1ccccc1-c1cc(Nc2cccc(CS(N)(=O)=O)c2)ncn1 (max dose 10000 nM),0,0,0,0,0,0,8.51,0,2.79,0,2.15,0,3.49,1.01,0.0889,2.01,0
COc1ccccc1S(=O)(=O)Nc1ccc2c(c1)CN(C)C(=O)N2 (max dose 10000 nM),2.12,0.591,0,0,0,0,1.9,0.733,0.84,0,0,2.91,1.4,0.402,0.265,0,0.475
Cc1ccc(-c2c(-c3nn(C)c4ncnc(N5CC[C@H](N6CCCCC6)C5)c34)cnn2C)cc1 (max dose 10000 nM),1.61,2.24,0,0,0,0.182,2.83,0.873,0.963,24,0.649,3.44,1.13,0.592,0,0.32,0
Cc1cccc(-c2nn3c(c2-c2ccnc4ccc(C(N)=O)cc24)CCC3)n1 (max dose 10000 nM),0,0,0,0,0,0,0,0,0,0,0,0,0,0,0,0,0
Cn1cc(C2=C(c3ccc(Cl)cc3Cl)C(=O)NC2=O)c2ccccc21 (max dose 10000 nM),10.5,20.1,0,0,0,0,9.8,2.63,0.789,0,5.19,0,6.53,0,3.79,0,0
Cn1nccc1Nc1nccc(-c2cc3c(s2)C(C)(C)N(CCN2CCOCC2)C3=O)n1 (max dose 10000 nM),0,0,0,5.78,0,0.193,0,0,0,0,0,0,0,2.7,21,0,0
NC(=O)c1ccc(-c2nc(-c3ccccn3)c(-c3ccc4c(c3)OCO4)[nH]2)cc1 (max dose 10000 nM),2.69,1.72,0.0489,0.264,0.539,0,2.46,2.41,4.46,0,1.52,1.34,1.34,0,0,2.46,0.808
O=C1CC(c2c[nH]c3ccc(F)cc23)C(=O)N1 (centres undefined) (max dose 10000 nM),0,0.16,0,0,0,0,0,0,0,0,0,0,0,0,0,0,0
O=C1NC(=O)C(c2ccccc2[N+](=O)[O-])=C1Nc1ccc(O)c(Cl)c1 (max dose 10000 nM),0,0,0,0,0,0,0,0,0,1.83,0,0,0,0,0,0,0
O=C1NC(=O)C(c2cnc3ccccn23)=C1c1cn2c3c(cc(F)cc13)CN(C(=O)N1CCCCC1)CC2 (max dose 10000 nM),39.3,0,0,0,0,0.0827,34.8,38.9,4.13,0,0,2.46,0.508,0,0,22.4,0
O=c1cc(N2CCOCC2)oc2c(-c3ccccc3)cccc12 (max dose 10000 nM),7.63,10,0.503,1.02,1.97,8.5,27.3,6.8,10.9,33,7.35,4.9,4.32,1.44,1.15,2.8,3.66
OCCn1cc(-c2cnc3nnn(Cc4ccc5ncccc5c4)c3n2)cn1 (max dose 10000 nM),0,0.0292,0,0,0,0,0,0,0,0,0,0,0,0,0,0,0
c1ccc2c(-c3cnn4cc(-c5ccc(N6CCNCC6)cc5)cnc34)ccnc2c1 (max dose 10000 nM),0,0,0,0,0,1.56,0,0,0,0,0,0,0.103,0,0,0,0.163

# Structures listed so far that contain a tert-butyl group (2):
SMILES,drug sensitivity score DSS3 5637,drug sensitivity score DSS3 (BC8149),drug sensitivity score DSS3 (J82),drug sensitivity score DSS3 (SCaBER),drug sensitivity score DSS3 (SW780),drug sensitivity score DSS3 (T-24),drug sensitivity score DSS3 (TCCSUP),drug sensitivity score DSS3 (UM-UC-12),drug sensitivity score DSS3 (UM-UC-14),drug sensitivity score DSS3 (UM-UC-15),drug sensitivity score DSS3 (UM-UC-17),drug sensitivity score DSS3 (UM-UC-18),drug sensitivity score DSS3 (UM-UC-1),drug sensitivity score DSS3 (UM-UC-3),drug sensitivity score DSS3 (UM-UC-5),drug sensitivity score DSS3 (UM-UC-6),drug sensitivity score DSS3 (UM-UC-9)
CC(C)(C)C[C@@H]1N[C@@H](C(=O)N[C@H]2CC[C@H](O)CC2)[C@H](c2cccc(Cl)c2F)[C@]12C(=O)Nc1cc(Cl)ccc12 (max dose 10000 nM),3.78,14.4,0,2.42,2.58,0.404,4.53,12.2,0.372,0,0,0.582,0.762,0.542,0,0.72,0
CCN(CC)CCCCNc1ncc2cc(-c3cc(OC)cc(OC)c3)c(NC(=O)NC(C)(C)C)nc2n1 (max dose 10000 nM),4.76,7.57,1.46,2.77,0.913,1.08,17.4,1.73,7.6,0,3.24,2.5,4.14,0.964,0.543,3.43,0
